# Measured values reported in PubChem BioAssay AID590 (National Center for Advancing Translational Sciences (NCATS), 2007).
# The campaign covered roughly 59,000 compounds. About 6,500 (11%) were called active. Inconclusive results, whose numbers are uncertain, are shown with a selection of clear calls. No stated cut-off is given here; in the data, active means max dye-equivalent concentration above about 10 nM; inconclusive means mostly about 1.1 nM to 9.6 nM; inactive means weaker than that.
# Assay: qHTS Assay for Spectroscopic Profiling in A350 Spectral Region
# Conditions: Compound autofluorescence, 340/450 nm, Alexa 350 dye-equivalents; active compounds read high
row,SMILES,max dye-equivalent concentration
1,Cc1coc2cc3oc(=O)c4c(c3cc12)CCC4,active: 390 nM
2,c1ccc2c(c1)nc(N1CCN(C3CCCCC3)CC1)c1nnnn12,inconclusive: 1.5 nM
3,CC1Cc2ccccc2N1Cc1cc(=O)n2ccsc2n1 (centres undefined),inconclusive: 2.6 nM
4,CN1CCN(C(=O)Nc2cccc3ccccc23)CC1,inconclusive: 1.4 nM
5,CCN(CCO)c1ccc(-n2c(N)c(C(=O)OC)c3nc4ccccc4nc32)cc1,inconclusive: 7.7 nM
6,CCCCOc1ccc(C(=O)N2CCCCCC2)cc1,active: 88 nM
7,CCC[C@H]1C(=O)N2C(N(C)C)=Nc3ccc(C)cc3N2C1=O,inactive
8,COc1cc(-c2ccc(N=Nc3ccc4c(S(=O)(=O)O)cc(S(=O)(=O)O)c(N)c4c3O)c(OC)c2)ccc1N=Nc1ccc2c(S(=O)(=O)O)cc(S(=O)(=O)O)c(N)c2c1O,inconclusive: 2.4 nM
9,O=C(CNC(=O)c1ccc(Br)o1)Nc1cccc(-c2cnc3ccccc3n2)c1,inconclusive: 7.8 nM
10,COc1ccc(-c2cc(C(F)(F)F)nc(SCCC(=O)Nc3cc(C)on3)n2)cc1,active: 45 nM
11,N#CC1=C2SCN(c3ccccc3)CN2C(=O)CC1c1cccs1 (centres undefined),inactive
12,CCN(Cc1ccccc1)C(c1cccc(C#N)c1)c1nnnn1C(C)(C)C (centres undefined),inactive
13,O=S(=O)(c1cccc(Cl)c1Cl)N1CCCCC1,inconclusive: 1.4 nM
14,CCOc1ccc(Cn2c(O)cc(=O)[nH]c2=O)cc1,inactive
15,O=C(CCC(=O)Nc1nnc(C2CCCCC2)s1)NCc1cccs1,inconclusive: 1.3 nM
16,COC(=O)c1sc2nc(N3CCCCC3)c3c(c2c1N)CC(C)(C)N(C)C3,active: 660 nM
17,CCCCNC(=O)CC(=O)Nc1ccccc1C(=O)O,inconclusive: 1.6 nM
18,CCn1c(SCC(=O)c2ccc(Cl)cc2)nnc1C(C)C,inactive
19,COc1ccc2[nH]c(=O)c(CN(Cc3ccccc3)Cc3nnnn3CC3CCCO3)cc2c1 (centres undefined),active: 120 nM
20,CC1=C(C(=O)NCc2ccccc2)C(c2ccc(C)o2)n2ncnc2N1 (centres undefined),inconclusive: 2.3 nM
21,COC(=O)c1cc(C(=O)OC)n(Cc2ccc(F)cc2)n1,inconclusive: 1.1 nM
22,CCSc1nc2sc3c(c2c(=O)n1C1CCCCC1)CCN(C)C3,active: 25 nM
23,Cc1ccccc1CCNC(=O)C1CCN(S(=O)(=O)c2ccc(-n3cnnn3)cc2)CC1,inconclusive: 4.7 nM
24,Oc1c(Cl)cc(C(c2cc(Cl)c(O)c(Cl)c2)C(c2cc(Cl)c(O)c(Cl)c2)c2cc(Cl)c(O)c(Cl)c2)cc1Cl,inactive

# Sorted by molar mass (high to low): 3 of the compounds above.
row,SMILES,max dye-equivalent concentration
19,COc1ccc2[nH]c(=O)c(CN(Cc3ccccc3)Cc3nnnn3CC3CCCO3)cc2c1 (centres undefined),active: 120 nM
11,N#CC1=C2SCN(c3ccccc3)CN2C(=O)CC1c1cccs1 (centres undefined),inactive
14,CCOc1ccc(Cn2c(O)cc(=O)[nH]c2=O)cc1,inactive
